## Screening data

The results are deposited in PubChem (AID977624; Broad Institute, 2014).

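Wild-type E. coli carrying GFP, grown in the same well as an h34 humanized-ribosome RFP strain; GFP fluorescence for growth, read after 24 h.
The value is the change in activity at the highest dose tested; more negative means stronger inhibition.
Active requires GFP to fall at least twice as much as RFP with growth loss below a set limit; inconclusive means no clear call; everything else is inactive.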

These entries are mostly ones the record files as inconclusive; other results of the assay are not listed here.

| # | SMILES | tested on / at | activity change | call |
|---|---|---|---|---|
| 1 | `COc1ccc(-c2nc3c(C)cc(Br)cn3c2Cc2ccc(C)cc2)cc1OC` | at 50 µM (top of the series) | 15.32 | inconclusive |
| 2 | `COc1ccc(OC)c(NC(=O)COc2ccc(S(=O)(=O)NC(C)C)cc2)c1` | at 50 µM (top of the series) | -0.108 | inactive |
| 3 | `COC(=O)CN1C(=S)N(c2ccc(F)cc2)C(=O)C1CC(=O)Nc1ccc(OC)cc1` (configuration not stated) | at 50 µM (top of the series) | 22.44 | inconclusive |
| 4 | `Cc1ccc(-n2nnnc2CNC(=O)c2ccc([N+](=O)[O-])o2)cc1C` | at 50 µM (top of the series) | 10.04 | inactive |
| 5 | `Cc1cccc(NC(=O)c2nc(S(=O)(=O)Cc3ccccc3)ncc2Cl)c1` | at 50 µM (top of the series) | 1.038 | inactive |
| 6 | `O=C1c2ccccc2C(c2nnnn2Cc2ccccc2)N1Cc1cccc(F)c1` (configuration not stated) | at 50 µM (top of the series) | 13.64 | inconclusive |
| 7 | `COc1ccc(CC(=O)Nc2cc(S(=O)(=O)Nc3ccc(OC)cc3)ccc2OC)cc1` | at 50 µM (top of the series) | 1.864 | inactive |
| 8 | `NC(=O)c1cccnc1Oc1ccc(Cl)cc1Cl` | at 50 µM (top of the series) | 28.6 | inconclusive |
| 9 | `O=C(COc1cccc2c1CCN(Cc1ccccc1F)C2=O)N1CCCCC1` | at 50 µM (top of the series) | -22.7 | inconclusive |
| 10 | `Cc1ccc2oc(=O)n(CCCOc3ccccc3C)c2c1` | at 50 µM (top of the series) | -37.77 | inconclusive |
| 11 | `Brc1ccc(-c2nc3c4ccccc4ccn3c2Cc2ccccc2)cc1` | at 50 µM (top of the series) | 42.41 | inconclusive |
| 12 | `COc1ccc(-c2csc(N)n2)cc1F` | at 50 µM (top of the series) | 39.58 | inconclusive |
| 13 | `COc1cc(OC)cc(-c2nc3ccccc3c(=O)n2OC(=O)c2ccc(C)c(C)c2)c1` | at 50 µM (top of the series) | 25.39 | inconclusive |
| 14 | `CC(C)(C)N(Cc1ccccc1)C(=O)COC(=O)Cn1cnc2ccccc2c1=O` | at 50 µM (top of the series) | -11.03 | inconclusive |
| 15 | `O=C(COC(=O)c1ccccc1O)NCCC1=CCCCC1` | at 50 µM (top of the series) | 4.88 | inactive |
| 16 | `O=C(CN(CCO)c1ccccc1)Nc1cccc(S(=O)(=O)N2CCCC2)c1` | at 50 µM (top of the series) | 33.5 | inconclusive |
| 17 | `O=C(COc1cccc2c1CCN(Cc1ccc(Br)cc1)C2=O)N1CCOCC1` | at 50 µM (top of the series) | 16.6 | inconclusive |
| 18 | `CCC1(C(=O)OC)CCc2c(cc(OC)c3ccccc23)C1=O` (configuration not stated) | at 50 µM (top of the series) | 11.66 | inconclusive |
| 19 | `CCCNc1ccc(C(=O)OCC)cc1[N+](=O)[O-]` | at 50 µM (top of the series) | 1.723 | inactive |
| 20 | `COc1cc2ccccc2cc1C(=O)NCC(c1cccs1)N(C)C` (configuration not stated) | at 50 µM (top of the series) | 33.29 | inconclusive |
| 21 | `O=C(c1ccccc1)N(c1ccccc1)c1nccc2ccccc12` | at 50 µM (top of the series) | 7.009 | inactive |
| 22 | `O=[N+]([O-])c1ccccc1Oc1ccc(Cl)c2cccnc12` | at 50 µM (top of the series) | -8.307 | inactive |
| 23 | `C[C@@H]1CCCCO[C@H](CN(C)C(=O)CCCN(C)C)[C@H](C)CN([C@H](C)CO)C(=O)c2cc(NC(=O)Nc3cccc4ccccc34)ccc2O1` | at 50 µM (top of the series) | -10.67 | inconclusive |
| 24 | `CC(=O)Nc1ccc2nc3ccccc3nc2c1` | at 50 µM (top of the series) | -4.581 | inconclusive |
| 25 | `Cc1cccc(-c2ccc([C@@H]3[C@@H](CO)N4CCCCN(S(=O)(=O)c5ccccc5C)C[C@H]34)cc2)c1` | at 50 µM (top of the series) | -1.329 | inactive |
| 26 | `Cc1cccc(NC(=O)CN(C)S(=O)(=O)c2cccs2)c1` | at 50 µM (top of the series) | 23.65 | inconclusive |
| 27 | `CCOc1ccc2[nH]c3c(NCCN(C)C)ncnc3c2c1` | at 50 µM (top of the series) | 30.46 | inconclusive |
| 28 | `Cc1nc2ccccn2c1C(=O)Nc1ccc(Cl)cc1` | at 50 µM (top of the series) | 34.05 | inconclusive |
| 29 | `Cc1noc(C)c1NC(=O)Nc1ccc2c(c1)C(=O)N([C@H](C)CO)C[C@H](C)[C@@H](CN(C)C(=O)Nc1ccc3c(c1)OCO3)OCCCC[C@H](C)O2` | at 50 µM (top of the series) | 31.38 | inconclusive |
| 30 | `C[C@]12CCC(=O)C[C@H]1CC[C@@H]1[C@@H]2CC[C@]2(C)C(=O)CC[C@@H]12` | at 50 µM (top of the series) | -21.51 | inconclusive |
| 31 | `O=C(c1cccs1)c1sccc1Cc1ccccc1` | at 50 µM (top of the series) | -44.39 | inconclusive |
| 32 | `Cn1c(=O)c2c(nc(N3CCOCC3)n2C/C=C/c2ccccc2)n(C)c1=O` | at 50 µM (top of the series) | -28.92 | inconclusive |
| 33 | `COc1ccc(C(=O)Nc2cccc3ccccc23)cc1` | at 50 µM (top of the series) | 6.269 | inactive |
| 34 | `COc1ccc(CSc2nc3ccccc3c(=O)n2CCCN2CCOCC2)cc1F` | at 50 µM (top of the series) | 3.518 | inconclusive |
| 35 | `CC(=O)NS(=O)(=O)c1ccc(NC(=O)COc2ccc(C(=O)c3ccccc3)cc2)cc1` | at 50 µM (top of the series) | 2.19 | inconclusive |
| 36 | `O=C(Nc1cccc(O)c1)c1cccc(S(=O)(=O)Nc2cccc(O)c2)c1` | at 50 µM (top of the series) | 8.906 | inconclusive |
| 37 | `O=C(Nc1cccc(Cl)c1)N1C[C@@H]2[C@H](c3ccccc31)[C@@H](CO)N2C(=O)c1cccnc1` | at 50 µM (top of the series) | -1.048 | inactive |
| 38 | `Cc1cccc(S(=O)(=O)N2CCCCN3[C@@H](CO)[C@H](c4ccc(C#CC(C)C)cc4)[C@@H]3C2)c1` | at 50 µM (top of the series) | -7.265 | inconclusive |
| 39 | `C[C@@H]1CN([C@@H](C)CO)C(=O)c2cc(NS(=O)(=O)c3ccccc3)ccc2O[C@@H]1CN(C)Cc1ccc(C(=O)Nc2ccccc2N)cc1` | at 50 µM (top of the series) | 24.92 | inconclusive |
| 40 | `CC(=O)CSc1ccc(-c2nc3ccccc3[nH]2)cn1` | at 50 µM (top of the series) | -9.235 | inconclusive |
| 41 | `c1ccc2c(c1)nc(N1CCCCCC1)c1ccccc12` | at 50 µM (top of the series) | -39.95 | inconclusive |
| 42 | `CCOC(=O)C1NN=C(C(=O)c2ccccc2)C1c1ccc(OC)cc1` (configuration not stated) | at 50 µM (top of the series) | 32.62 | inconclusive |
| 43 | `CCOC(=O)c1cnc2c(c(C)nn2C)c1Oc1ccc(OC)cc1` | at 50 µM (top of the series) | 16.39 | inconclusive |
| 44 | `Cc1sc(C(=O)Nc2ccc3ccccc3c2)cc1CC(=O)O` | at 50 µM (top of the series) | -35.88 | inconclusive |
| 45 | `CCC(C(=O)Nc1ccsc1C(=O)OC)c1ccccc1` (configuration not stated) | at 50 µM (top of the series) | -6.131 | inconclusive |
| 46 | `C[C@@H]1CCCCO[C@@H](CN(C)C)[C@H](C)CN([C@H](C)CO)C(=O)c2cc(NC(=O)Nc3cccc4ccccc34)ccc2O1` | at 50 µM (top of the series) | 5.198 | inactive |
| 47 | `CCOc1ccc(OCC)c(NC(=O)CSc2nc3c(c(=O)n(C)c(=O)n3C)n2C(C)C)c1` | at 50 µM (top of the series) | -18.92 | inconclusive |
| 48 | `O=C(CSc1nnc(-c2ccccc2F)n1C1CC1)Nc1cccnc1Cl` | at 50 µM (top of the series) | -2.419 | inactive |
| 49 | `COc1ccc(CN(C)C(=O)c2cc(-c3ccc(OC)c(OC)c3)nc3ccccc23)c(OC)c1` | at 50 µM (top of the series) | 22.34 | inconclusive |
| 50 | `COc1ccccc1CC(=O)NCCCc1ccccc1` | at 50 µM (top of the series) | 13.88 | inconclusive |
| 51 | `CCC(C)c1ccccc1NC(=O)c1cccc(-n2cnnn2)c1` (configuration not stated) | at 50 µM (top of the series) | -16.23 | inconclusive |
| 52 | `COc1ccc(-n2c(-c3ccc(Cl)cc3)c[n+]3c2CCCCC3)cc1` | at 50 µM (top of the series) | -34.97 | inconclusive |

Once more, the final 5:

SMILES	tested on / at	activity change	call
O=C(CSc1nnc(-c2ccccc2F)n1C1CC1)Nc1cccnc1Cl	at 50 µM (top of the series)	-2.419	inactive
COc1ccc(CN(C)C(=O)c2cc(-c3ccc(OC)c(OC)c3)nc3ccccc23)c(OC)c1	at 50 µM (top of the series)	22.34	inconclusive
COc1ccccc1CC(=O)NCCCc1ccccc1	at 50 µM (top of the series)	13.88	inconclusive
CCC(C)c1ccccc1NC(=O)c1cccc(-n2cnnn2)c1 (configuration not stated)	at 50 µM (top of the series)	-16.23	inconclusive
COc1ccc(-n2c(-c3ccc(Cl)cc3)c[n+]3c2CCCCC3)cc1	at 50 µM (top of the series)	-34.97	inconclusive